A short description of this test: qHTS Assay for Modulators of Lamin A Splicing. Conditions: HeLa LMNA splicing GFP/RFP minigene ratio, 48 h. Summed up: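 Read-out is the ratio of GFP to DsRed2 object intensity, acquired by 488 nm laser-scanning cytometry on HeLa lamin A-EGFP minigene reporter cells. Compound incubation 48 hrs at 37 °C in Opti-MEM with 2% FBS; DMSO 0.5% final.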
(Quantitative high-throughput screening tests each substance at several concentrations.)

[1] abbreviates: measured here: GFP splicing reporter channel.
The mark [2] stands for this setting: measured here: RFP viability control channel.

Molecules are shown by their SMILES. “And” between values parts separate entries of the source, which are not always exact repeats. Identical values can stand only once. The list shows a part of the results. The main result of the screen is listed elsewhere. These columns were measured beside it and carry no call. Most of these compounds were active or inconclusive in the main read-out, so they are no random draw. The note in brackets gives the kind of curve behind each potency; many fits are weak.

On to `N#Cc1cc2c(nc1SCC(=O)N1CCCCC1)CCCCC2`, for which the concentration at half-maximal activity (AC50) under setting [1] was 15.8 µM [rising, partial curve].

On to `COc1cc2[nH]c(=S)n(Cc3cccs3)c(=O)c2cc1OC`, for which the AC50 under setting [2] was 5.01 µM [rising, full curve, poor fit]. Take `Oc1c(Cl)cc(Cl)cc1Sc1cc(Cl)cc(Cl)c1O`: the AC50 by setting is: under setting [1], 6.31 µM [rising, single point]; under setting [2], 5.62 µM [rising, single point] and 3.16 µM [rising, single point]. As for `Cc1ccccc1OCC(=O)NC(=S)Nc1ccc(Br)c(C)n1`, the AC50 under setting [1] is 3.98 µM [rising, partial curve, poor fit].

As to `CNC(=O)NC1CCCCc2sccc21` (stereo not drawn), the AC50 under setting [2] is 5.62 µM [falling, partial curve]. In the case of `C=CCc1ccccc1OCC(O)CNC(C)C` (stereo not drawn), the AC50 was 11.2 µM [falling, single point] and 20 nM [falling, full curve, poor fit] under setting [1]; 15.8 µM [falling, single point] and 6.31 nM [falling, full curve, poor fit] under setting [2]. As for `CCCC[n+]1ccn(C2=C([O-])c3ccccc3C(=O)/C2=N\S(=O)(=O)c2ccc(Br)cc2)c1`, the half-maximal activity concentration (AC50) under setting [1] is 15.8 µM [rising, partial curve] and the half-maximal activity concentration (AC50) under setting [2] was 10 µM [rising, partial curve]. For `Cn1c(C(=O)N2CCN(c3cccc(C(F)(F)F)c3)CC2)cc2sccc21`, the concentration at half-maximal activity (AC50) was 17.8 µM [rising, partial curve] under setting [1] and 15.8 µM [rising, partial curve] under setting [2].

On to `CCc1ccc(N(C(=O)c2csnn2)C(C(=O)NC(C)(C)C)c2ccccn2)cc1` (stereo not drawn), for which the concentration at half-maximal activity (AC50) under setting [1] is 3.16 µM [rising, full curve]. With `c1ccc(-n2nnnc2SCc2cccc(CSc3nnnn3-c3ccccc3)n2)cc1`, under setting [2], the half-maximal activity concentration (AC50) was 12.6 µM [rising, single point]. Consider `COc1ccc(Cn2c(C)c(C)c(C#N)c2NC(=O)Nc2cccc(Cl)c2)cc1`, for which the half-maximal activity concentration (AC50) is 20 µM [rising, single point] under setting [1] and 31.6 µM [rising, single point] under setting [2]. `COCCNC(=S)N1CCN(S(C)(=O)=O)CC1`: the concentration at half-maximal activity (AC50) under setting [1] is 3.16 µM [rising, full curve, poor fit].

Regarding `O=C(COc1ccccc1)Nc1ccc2nc(SCC(=O)N3CCCC3)sc2c1`, under setting [1], the AC50 was 35.5 µM [falling, single point]. For `CCOC(=O)c1cc(C)sc1NC(=O)C(c1ccccc1)c1ccccc1`, the AC50 under setting [2] is 0.02 µM [falling, full curve, poor fit].

In the case of `CN(CCN1CCOCC1)Cc1nc(-c2cccs2)no1`, the half-maximal activity concentration (AC50) under setting [2] is 6.31 µM [falling, partial curve, poor fit].

Consider `Cc1ccccc1CC1(CO)CCCN(C(=O)c2ccccc2N(C)C)C1` (stereo not drawn), for which the AC50 under setting [2] is 0.0447 µM [falling, full curve, poor fit]. Consider `CCCCOc1ccc(CC(=O)NO)cc1`, for which the half-maximal activity concentration (AC50) under setting [1] was 0.355 µM [falling, full curve, poor fit]. Consider `Cn1nc(-c2ccc(OCC(=O)NCC3CCCO3)cc2)c2ccccc2c1=O` (stereo not drawn), for which the half-maximal activity concentration (AC50) under setting [2] was 12.6 µM [rising, partial curve]. Turning to `CN(C)c1ccc(/C=C2\C(=O)Nc3ccccc32)cc1`, the concentration at half-maximal activity (AC50) under setting [1] is 35.5 µM [falling, single point].

On to `CCOC(=O)CNc1nc(C(C)(C)C)nc2c1nnn2Cc1ccccc1Cl`, for which the AC50 is, setting by setting: under setting [1], 14.1 µM [rising, single point]; under setting [2], 35.5 µM [rising, single point].

On to `CCN(CCCNC(=O)c1[nH]c(C)c(C(C)=O)c1C)c1cccc(C)c1`, for which, under setting [2], the AC50 is 14.1 µM [rising, single point]. As to `Cc1cccc(NC2=C(NC(=O)c3ccccc3)C(=O)c3ccccc3C2=O)c1`, the AC50 under setting [2] is 15.8 µM [rising, partial curve]. Consider `CN(C)S(=O)(=O)c1cccc(C(=O)Nc2cc(Cl)cc(Cl)c2)c1`, for which the AC50 under setting [2] was 35.5 µM [rising, single point].

As for `CS(=O)(=O)Nc1cccc(-c2nc(-n3ccnc3)c3ccccc3n2)c1`, the half-maximal activity concentration (AC50) by setting is: under setting [1], 17.8 µM [falling, partial curve]; under setting [2], 35.5 µM [falling, single point]. As for `COC(=O)c1nc(N)sc1C`, under setting [1], the AC50 was 0.891 µM [falling, partial curve]. `COc1ccccc1C(=O)/C=C/c1ccc(N2CCCCC2)c([N+](=O)[O-])c1`: the AC50 under setting [1] is 35.5 µM [falling, single point] and the AC50 under setting [2] was 3.98 µM [falling, single point].

For the compound `O=C(CN1CCN(c2ccc(Cl)cc2)CC1)Nc1ccc(F)c(F)c1`, the AC50 under setting [1] was 0.01 µM [falling, full curve, poor fit] and the AC50 under setting [2] is 0.0112 µM [falling, full curve, poor fit]. Take `Cc1ccccc1OCC(O)CN1CCN(C)CC1` (stereo not drawn): the AC50 under setting [1] is 3.98 µM [rising, partial curve] and the concentration at half-maximal activity (AC50) under setting [2] is 3.98 µM [rising, single point].

For the compound `CCOC(=O)c1oc2ccc(S(=O)(=O)n3nc(-c4ccccc4)cc3N)cc2c1C`, the AC50 under setting [2] was 31.6 µM [rising, single point]. As for `CCOC(=O)C1(CCC(C)C)CC(CSc2nc3ccccc3[nH]2)OC1=O` (stereo not drawn), under setting [2], the AC50 is 12.6 µM [rising, single point]. As to `O=C(CN1CCN(c2ccccc2)CC1)Nc1ccc(OCc2ccccc2)cc1`, the concentration at half-maximal activity (AC50) is 35.5 µM [rising, single point] under setting [1] and 35.5 µM [rising, single point] under setting [2]. For `Cc1cc(C)nc(N2CCC(C(=O)N3CCN(c4cc(Cl)ccc4C)CC3)CC2)n1`, under setting [2], the AC50 is 12.6 µM [rising, single point].

Take `COc1ccc(-c2cc(C(=O)N/N=C/c3ccc4c(c3)OCO4)c3ccccc3n2)c(OC)c1`: the concentration at half-maximal activity (AC50) under setting [1] was 14.1 µM [rising, single point] and the AC50 under setting [2] is 12.6 µM [rising, single point]. Take `CC(C)CCNC(=O)c1ccc2c(c1)N(C)C(=O)c1ccccc1S2`: the half-maximal activity concentration (AC50) under setting [1] was 0.00501 µM [falling, full curve, poor fit] and the AC50 under setting [2] is 0.00447 µM [falling, full curve, poor fit]. In the case of `O=C(C1=C(O)C(=O)N(Cc2cccnc2)C1c1ccccn1)c1cccs1` (stereo not drawn), the AC50 runs as follows: under setting [1], 0.794 µM [rising, full curve, poor fit]; under setting [2], 0.447 µM [rising, full curve, poor fit]. Regarding `CC(C)=CCC/C(C)=C/CC(C)(C)CNCCN1CCNCC1`, the AC50 under setting [1] is 35.5 µM [falling, single point] and the AC50 under setting [2] is 35.5 µM [falling, single point]. On to `CCOc1cc2[nH]c(=O)n(CCCCCC(=O)NC(C)CC)c(=O)c2cc1OCC` (stereo not drawn), for which the concentration at half-maximal activity (AC50) under setting [2] is 5.62 µM [falling, partial curve, poor fit]. On to `Cc1cc(C)cc(NC(=O)c2ccc(Cn3nc(C)c(Cl)c3C)o2)c1`, for which the AC50 was 12.6 µM [rising, single point] under setting [1] and 17.8 µM [rising, partial curve] under setting [2]. Take `Cc1ccc(C)c(NC(=O)CCc2ccc(S(=O)(=O)NC3CCCCC3)cc2)c1`: the AC50 under setting [2] was 12.6 µM [rising, single point]. `CCCCCCCCCCCCCCCCO`: the concentration at half-maximal activity (AC50) was 35.5 µM [falling, single point] under setting [1] and 0.355 µM [rising, full curve, poor fit] under setting [2]. On to `Cc1ccc(C(=O)CC2(O)C(=O)N(Cc3ccccc3)c3ccc(Br)cc32)cc1` (stereo not drawn), for which the AC50 under setting [2] is 35.5 µM [falling, single point]. As to `Nc1cccc(Nc2nc(OC(C(F)(F)F)C(F)(F)F)nc(OC(C(F)(F)F)C(F)(F)F)n2)c1`, the AC50 was 20 µM [falling, single point] under setting [1] and 35.5 µM [falling, single point] under setting [2]. Regarding `Cc1ccc(-c2[nH]ncc2/C=C(\C#N)C(=O)NC2CCCCC2)cc1`, the AC50 was 10 µM [rising, partial curve] under setting [1] and 10 µM [rising, partial curve] under setting [2]. Turning to `O=C(O)c1ccccc1N/N=C/c1c(Sc2nnnn2-c2ccccc2)nc2ccccn2c1=O`, the concentration at half-maximal activity (AC50) under setting [1] is 0.355 µM [rising, full curve, poor fit]. Regarding `CCc1cc2c(NCC3CCCO3)ncnc2s1` (stereo not drawn), the AC50 is, setting by setting: under setting [1], 20 µM [rising, single point]; under setting [2], 35.5 µM [rising, single point]. As for `Cc1ccc2nc(=O)c(NNc3ccccc3)cnc2c1`, the AC50 runs as follows: under setting [1], 31.6 µM [rising, single point]; under setting [2], 12.6 µM [rising, single point]. Turning to `NS(=O)(=O)c1ccc(NC(=O)COC(=O)c2cnccn2)cc1`, the half-maximal activity concentration (AC50) reads like this: under setting [1], 0.708 µM [rising, single point]; under setting [2], 0.501 µM [rising, single point]. With `CCOc1ccccc1CNC(=O)CCn1cccn1`, the AC50 under setting [1] is 0.0562 µM [falling, full curve, poor fit] and the AC50 under setting [2] is 0.0562 µM [falling, full curve]. For `Cc1noc(C)c1-c1ccc2ncnc(Nc3ccccc3)c2c1`, the AC50 is, setting by setting: under setting [1], 14.1 µM [falling, partial curve]; under setting [2], 2.51 µM [falling, partial curve, poor fit]. Take `CCN1/C(=C/C(C)=O)Sc2ccc(OC)cc21`: the concentration at half-maximal activity (AC50) runs as follows: under setting [1], 2.51 µM [rising, full curve, poor fit] and 398 nM [falling, full curve, poor fit]; under setting [2], 11.2 µM [falling, partial curve, poor fit] and 794 nM [falling, full curve, poor fit]. As to `CC(=O)Nc1ccccc1C(=O)C(=O)Nc1ccccc1`, under setting [1], the AC50 is 6.31 µM [rising, single point]. Consider `CCCC(=O)N1CCCC(c2nc(-c3cccc(OC)c3)no2)C1` (stereo not drawn), for which, under setting [1], the concentration at half-maximal activity (AC50) was 0.0794 µM [rising, full curve, poor fit]. As to `CCOc1ccc(S(=O)(=O)Nc2ccc(Cl)cn2)c(C)c1C`, under setting [2], the AC50 was 31.6 µM [rising, single point].

Broadly, the AC50 is the midpoint of the concentration-response curve, whichever way the signal moves.

The values above are taken from PubChem BioAssay AID1487 (National Center for Advancing Translational Sciences (NCATS), 2009).
